Experiment: Tryptophan fluorescence spectra analysis
Type: physicochemical
Details: pH 11, excitation 295 nm

Row | Compound | increase of emission intensity when HPH is applied
1 | α-lactalbumin | about 50 fold
2 | N[C@@H](Cc1c[nH]c2ccccc12)C(=O)O [Trp, tryptophan] | ~45 fold

Source: patent US20250288536A1, “PROTEIN PARTICLES INCLUDING AN ACTIVE AGENT AND METHODS OF MAKING AND USING THE SAME” (Dairy Mangement Inc., priority 2022, published 2025)
